These are yes or no findings as the source states them, for the method shown. In cells and extracts the contact can be indirect. Some results given as binding are weak or reduced against the parent protein; the word gives no strength. Tags and fused reporters may be left off the sequences shown.
B1: PhBSβ-His (C-terminal His-tagged beta subunit of Petunia hybrida benzaldehyde synthase) (enzyme)
chain: MENSGKKVLLTSNGDDICNNIAYHLAQRGCQLVLMGNESQLKSVAEMIKQSLGGSAAVEVVGLDMEEDREAAFEEAVDKAWKIFGKLDALVNCYSYEGKMQDPLQLIEEEFKKIVKINFMAGWYLMKCISKKMRDDKSGGSIVFLTSIIGAERGIYQGAAAYGSCLGGIQQLVRLAAIELGKHQIRVNGISRGLHLQDEYPKAVGLERAEKMTKEAAPLNRWLDVKKDLASTVIYLISDDSRYMTGTSIFVDGAQSLVRPRMRSYMHHHHHH
B2: PhBSα, tag-free (MBP removed from MBP-PhBSα by Factor Xa protease) (enzyme)
chain: MEKQTQARFLEPWRDLKGKVVMVTGASSGIGLDLCLDLAKAGCKIIAAARRVDRLKSLCNQINAAADDDDDNNRAVAVELDVSANGDAIEAAVKEAWGAFGRIDALVNNAGVRGTVHSPLELTEEECHNTFRTNLTGTWLVSKYVCKFMRDAKQGGSVINISSIAGLNRGQLPGGLAYVSSKGAVNMVTKVMALELGVDKIRVNSISPGLFKSEITQGLIQKEWLNNVAMRTIPLRTHGNSADPALTSVVRYLIHDSSEYVSGNLFIVDAGATLPGVPIFSSL

Legend:
[1] = target: T1, MBP-PhBSα (maltose binding protein-tagged alpha subunit of Petunia hybrida benzaldehyde synthase) (Petunia hybrida); assay: pull-down on amylose resin from mixed bacterial lysates, SDS-PAGE
T1 sequence: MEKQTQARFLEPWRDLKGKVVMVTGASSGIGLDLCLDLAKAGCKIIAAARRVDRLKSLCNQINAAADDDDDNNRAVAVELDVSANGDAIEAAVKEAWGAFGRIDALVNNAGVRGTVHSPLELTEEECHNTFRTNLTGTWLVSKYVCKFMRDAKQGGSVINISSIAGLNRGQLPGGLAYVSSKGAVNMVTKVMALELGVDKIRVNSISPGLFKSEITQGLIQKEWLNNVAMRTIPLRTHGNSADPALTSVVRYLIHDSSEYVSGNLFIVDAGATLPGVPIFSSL

[2] = target: T2, PhBSβ-His (C-terminal His-tagged beta subunit of Petunia hybrida benzaldehyde synthase) (Petunia hybrida); assay: pull-down on Ni-NTA agarose after Factor Xa digestion of MBP-PhBSα, SDS-PAGE and BS activity
T2 sequence: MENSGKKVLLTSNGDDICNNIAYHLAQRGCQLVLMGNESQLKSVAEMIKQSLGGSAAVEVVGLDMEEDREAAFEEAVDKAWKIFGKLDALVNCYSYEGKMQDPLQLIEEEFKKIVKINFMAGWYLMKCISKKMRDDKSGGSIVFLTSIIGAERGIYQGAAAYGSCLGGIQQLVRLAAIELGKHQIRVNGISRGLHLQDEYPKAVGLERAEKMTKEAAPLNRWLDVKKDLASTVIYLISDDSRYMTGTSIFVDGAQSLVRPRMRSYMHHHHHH

Row | Binder | binding [1] | binding [2]
1 | B1 | binds | 
2 | B2 |  | binds

Source: patent US20250034601A1, “HETERODIMERIC BENZALDEHYDE SYNTHASE, METHODS OF PRODUCING, AND USES THEREOF” (Purdue Research Foundation, priority 2021, published 2025)
